{
  "source": "patent US9828351B2",
  "about": "“Enzyme interacting agents” (MONASH UNIVERSITY, priority 2014, dated 2017)",
  "note": "The name of at least one read-out is uncertain.",
  "data": [
    {"test_system": "Neonatal cardiac fibroblasts (NCFs) collagen synthesis", "test": "Inhibition of NCF collagen synthesis by 3H-proline incorporation", "type": "cell-based", "units": {"EC (effective concentration: concentration required to reduce collagen synthesis to a level equal to or below unstimulated control)": "µM"}, "values": [
      {"smiles": "Clc1ccc(-c2nnc(Nc3ccc(-c4nn[nH]n4)cc3)o2)cc1", "note": "[Example E-27, 5-(4-Chlorophenyl)-N-[4-(1H-tetrazol-5-yl)phenyl]-1,3,4-oxadiazol-2-amine]", "EC (effective concentration: concentration required to reduce collagen synthesis to a level equal to or below unstimulated control)": ">10"},
      {"smiles": "O=S1NC(c2ccc(Nc3nnc(-c4ccc(Cl)cc4)o3)cc2)=NO1", "note": "(stereo not drawn) [Example E-28, 5-(4-Chlorophenyl)-N-[4-(2-oxido-3H-1,2,3,5-oxathiadiazol-4-yl)phenyl]-1,3,4-oxadiazol-2-amine]", "EC (effective concentration: concentration required to reduce collagen synthesis to a level equal to or below unstimulated control)": "0.5 to 5"},
      {"smiles": "CC1=C(/C=C/C(C)=C/C=C/C(C)=C/C(=O)Nc2ccc(O)cc2)C(C)(C)CCC1", "note": "[Fenretinide, reference compound]", "EC (effective concentration: concentration required to reduce collagen synthesis to a level equal to or below unstimulated control)": "0.5 to 5"}
    ]}
  ]
}
